Results deposited as PubChem BioAssay AID686943 (Drosophila RNAi Screening Center, 2013).

- Purpose: 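Fly genes whose loss alters ERK activation after insulin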 (primary screen)
- System: Drosophila S2R+ haemocyte-like cells expressing YFP-tagged ERK (Rolled)
- Knock-down reagent: long dsRNA against Drosophila genes
- Challenge: insulin stimulation versus unstimulated cells; dose and duration not given
- Measured: 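Per-plate z-scores of phospho-ERK immunostaining normalised to YFP-tagged ERK, measured with and without insulin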
- Direction: replicate 1, z-score of dpERK with insulin and replicate 2, z-score of dpERK with insulin: higher = more active ERK per ERK-YFP after insulin; replicate 1, z-score of dpERK under basal conditions: higher = more basal active ERK per ERK-YFP; replicate 1, z-score of ERK-YFP with insulin: higher = more YFP-tagged ERK signal
The deposit covers about 23,000 reagents; shown is a random part of those that have a named target and a result. 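Extra replicates exist only for a retested subset of genes; insulin dose and duration not given; both raised and lowered dpERK matter.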 Not given: the amount of reagent, the time to read-out.

no.	Target gene	dsRNA	replicate 1, z-score of dpERK with insulin	replicate 2, z-score of dpERK with insulin	replicate 1, z-score of dpERK under basal conditions	replicate 1, z-score of ERK-YFP with insulin
1	CG17707 (GeneID 5740408)	DRSC20650	-0.66	-0.3	0.02	-0.09
2	CG1638 (GeneID 43721)	DRSC15132	-0.61	0	-0.79	0.47
3	Polr3E (GeneID 40325)	DRSC11880	1	0.66	-0.76	-1.39
4	TpnC25D (GeneID 33752)	DRSC02965	-0.35	0.96	-0.56	-1.28
5	Rcd5 (GeneID 38478)	DRSC08180	0.42	-0.41	-0.56	1.8
6	Etf-QO (GeneID 36031)	DRSC06111	-0.04	0.03	-0.54	0.51
7	CarT (GeneID 35334)	DRSC03196	0.19	-0.79	0.21	1.36
8	CG6023 (GeneID 32814)	DRSC19970	0.2	0.49	-0.68	1.42
9	Acph-1 (GeneID 48445)	DRSC14103	-0.24	0.18	0.69	-0.37
10	fan (GeneID 43926)	DRSC10930	0.5	0.2	-0.68	0.21
11	glob2 (GeneID 40807)	DRSC12560	-1.25	0.77	-1.14	0.48
12	exu (GeneID 37345)	DRSC07615	-0.03	0.65	-0.67	-0.03
13	Lcp1 (GeneID 35817)	DRSC07455	0.33	0.18	-0.58	-0.03
14	CG14237 (GeneID 43194)	DRSC14731	0.24	-1.42	0.68	0.87
15	Acsx2 (GeneID 42353)	DRSC14308	-0.26	-0.29	-0.26	-0.24
16	zld (GeneID 32994)	DRSC19486	0.97	-0.92	1.78	0.43
17	zld (GeneID 32994)	DRSC21721	-1.37	-1.77	-0.88	-0.45
18	Obsc (GeneID 3346201)	DRSC04301	0.09	-0.46	0.06	0.36
19	Obsc (GeneID 3346201)	DRSC04302	0.07	-0.13	0.51	0.17
20	Obsc (GeneID 3346201)	DRSC04303	0.91	0.62	-1.08	-0.35
21	Obsc (GeneID 3346201)	DRSC04430	0.06	-0.42	0.23	0.03
22	Obsc (GeneID 3346201)	DRSC22422	0.64	0.3	-0.47	-0.47
23	CG42445 (GeneID 8674111)	DRSC10858	0.28	0.41	-0.2	-0.05
24	Nepl7 (GeneID 34671)	DRSC02495	0.2	0.03	0.2	0.49
25	eIF1A (GeneID 44260)	DRSC16937	-1.4	-2.2	-4.61	-0.77
26	Pif2 (GeneID 170876)	DRSC12525	0.54	0.14	0.59	-0.4
27	PPO2 (GeneID 35910)	DRSC07102	0.35	0.07	-0.31	-0.15
28	zip (GeneID 38001)	DRSC04725	0.39	-0.22	0.86	-1.55
29	zip (GeneID 38001)	DRSC22489	-1.63	0.05	0.57	-0.91
30	CG3776 (GeneID 37996)	DRSC04417	-0.35	-0.6	0	-0.36
31	PKD (GeneID 42203)	DRSC16200	0.04	0.15	-0.36	-0.17
32	CG33098 (GeneID 326253)	DRSC22903	0.94	0.39	0.13	-0.63
33	Wdr33 (GeneID 40698)	DRSC12162	2.79	2.42	3.25	-2.15
34	snama (GeneID 37857)	DRSC04049	0.54	1.39	0.83	1.03
35	baz (GeneID 32703)	DRSC20309	0.25	1.05	0.2	0.21
36	SppL (GeneID 43128)	DRSC15228	-0.08	-0.06	0.19	0.28
37	CG32376 (GeneID 318002)	DRSC22754	0.69	0.39	-0.2	0.27
38	Drak (GeneID 32097)	DRSC19778	0.15	1.15	-0.2	0.33
39	CG31195 (GeneID 46155)	DRSC13440	1.17	1.61	-0.3	0.37
